Data from PMC6221024.

T1: syndecan‐4 (rat (endogenous in soleus muscle)) (UniProt P34901)
T1 sequence (chain, heparan sulfate chains attached to the ectodomain): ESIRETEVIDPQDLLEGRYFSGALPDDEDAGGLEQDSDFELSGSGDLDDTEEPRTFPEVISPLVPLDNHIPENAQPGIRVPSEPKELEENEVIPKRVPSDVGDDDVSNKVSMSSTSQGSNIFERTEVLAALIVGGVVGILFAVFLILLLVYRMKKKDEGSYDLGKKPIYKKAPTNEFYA

B1: syndecan‐4 (protein, UniProt P34901 24-202)
chain: T1 sequence (chain, heparan sulfate chains attached to the ectodomain)
modifications: heparan sulfate chains attached to the ectodomain

Columns and labels:
[1] = molecular target: T1, syndecan‐4 (rat (endogenous in soleus muscle)); assay: condition: only after heparinase II digestion of the immunoprecipitate (0.4 mU, 3 h, 37 °C); co-IP; injured (day 3) rat soleus homogenates; IP with goat anti-SDC4 antibody, then the immunoprecipitate digested with 0.4 mU heparinase II for 3 h at 37 °C in 50 mM HEPES pH 6.5, 50 mM NaOAc, 150 mM NaCl, 5 mM CaCl2; supernatant and eluted immunocomplex blotted
[2] = molecular target: T1, syndecan‐4 (rat (endogenous in soleus muscle)); assay: co-IP; rat soleus muscle homogenates, un-injured (day 0) and 3 days after notexin injury; pre-cleared with Protein A/G beads; overnight with rabbit anti-myostatin (AB3239) or anti-SDC4 antibody, then Protein A/G; washed with 25 mM Tris, 150 mM NaCl, pH 7.2; eluted with 0.2 M glycin pH 2.5; immunoblot
[3] = molecular target: promyostatin (rat (endogenous in soleus muscle)) (UniProt O35312); assay: as above

| Molecule | binding [1] | binding [2] | binding [3] |
| --- | --- | --- | --- |
| promyostatin (from UniProt O35312) | no binding | binds |  |
| B1 |  |  | binds |

No constants are given. Whether binding was seen depends on the method and setting. In cells and extracts the contact can be indirect. For part of these data: Binding calls can cover weak binding; strength is not graded here.
